# From PMC6803327
# Results are given in words; binding and its absence hold for the method and conditions named. For some assays here: Binding seen in cells or lysates may run through a third protein. Where a sequence is shown, tags or fusion partners need not be part of it.
# Tests used:
# [1] = target: T1, FLAG-tagged IncF (IncF_(FLAG)) (C. trachomatis (serovar of the cloned gene not stated)) (UniProt B0B9M5); assay: co-IP; FLAG magnetic beads on clarified lysates of HeLa cells infected with C. trachomatis L2 CT226_(FLAG) or IncF_(FLAG) transformants (aTc at 7 hpi, lysed at 24 hpi; 50 mM Tris-HCl pH 7.4, 150 mM NaCl, 0.5% deoxycholate, 0.1% SDS, 1% Triton X-100), 2 h at 4°C, eluted with FLAG peptide; blot with anti-LRRF1; three replicates
# T1 sequence: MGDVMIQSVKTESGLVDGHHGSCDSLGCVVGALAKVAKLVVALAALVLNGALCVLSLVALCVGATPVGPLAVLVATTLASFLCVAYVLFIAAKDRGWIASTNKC
# [2] = target: T2, CT288 (BACTH fusion) (C. trachomatis serovar L2) (UniProt O84290); assay: two-hybrid; bacterial adenylate cyclase two-hybrid (BACTH): pST25 and pUT18C fusions cotransformed into E. coli DHT1 (ΔcyaA), minimal medium with IPTG and X-Gal, 30°C 3 to 5 days; β-galactosidase assay in relative units; positive: more than five times the negative control
# T2 sequence: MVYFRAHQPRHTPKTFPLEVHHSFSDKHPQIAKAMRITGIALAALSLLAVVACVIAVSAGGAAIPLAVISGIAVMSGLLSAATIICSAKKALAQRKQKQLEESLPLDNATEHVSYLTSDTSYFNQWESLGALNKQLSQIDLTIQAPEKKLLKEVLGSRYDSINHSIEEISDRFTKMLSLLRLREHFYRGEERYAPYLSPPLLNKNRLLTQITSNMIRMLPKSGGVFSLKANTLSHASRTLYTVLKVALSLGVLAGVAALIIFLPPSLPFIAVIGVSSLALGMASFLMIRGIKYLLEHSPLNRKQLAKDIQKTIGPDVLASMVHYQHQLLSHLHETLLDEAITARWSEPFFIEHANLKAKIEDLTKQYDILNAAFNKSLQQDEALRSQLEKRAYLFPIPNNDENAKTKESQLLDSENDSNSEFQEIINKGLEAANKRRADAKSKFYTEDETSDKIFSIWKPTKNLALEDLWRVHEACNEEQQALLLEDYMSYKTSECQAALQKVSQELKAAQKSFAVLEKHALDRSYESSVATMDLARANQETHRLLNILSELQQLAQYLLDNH
Substance,binding [1],binding [2]
leucine-rich repeat flightless-interacting protein 1 (endogenous) (human (endogenous in HeLa)),no binding,
LRRF1 (BACTH fusion) (human),,no binding
